# Only a part is listed here, and it is no random draw. At the low end of the ranking the order means little.
# Target: SPI1 (UniProt P17947)
# Experiment: DAPPL (digital affinity profiling via proximity ligation, sequencing)
# Conditions: 10 mM Tris-HCl pH 7.5, 50 mM NaCl, 1 mM DTT, 4% glycerol, room temperature, 30 min; GST-TFs on glutathione beads, 16-mer random dsDNA library, 0.1% …; high values mean tight binding; double strand, one strand shown; scale: fold enrichment (6-mer frequency, TF over GST control)
row,Sequence,binding signal
1,GCAACT,1.23
2,CGACGC,1.06
3,GCGCAC,0.864
4,TCTGGA,1.01
5,TCATAG,0.873
6,ACTTCG,1.44
7,CCGCTG,0.986
8,CAGATC,0.863
9,TCGAGG,0.838
10,AAATCT,1.14
11,TGGTGA,0.952
12,GGATGT,1.53
13,GTGCCC,1.07
14,CAGAAC,0.918
15,ATAGGC,0.957
16,CCGAGC,1.12
17,TTCCGG,5.73
18,CATTCG,1.26
19,TGCTTA,0.995
20,AACAGA,0.982

row,Sequence,binding signal
1,TCCCAT,1.28
2,TCACCA,1.21
3,GCCACT,1.17
4,CTCGCA,1.27
5,TTTCCA,1.37
6,CTAGAA,0.991
7,GATCAC,0.938
8,AGGAAC,1.45
9,CATAGA,0.895
10,TGTGAT,0.961
11,GCCCCA,0.972
12,GGCTCG,0.89
13,GAATCA,0.863
14,TAAGGG,0.978
15,TCCAAG,1.03
16,GCGACG,0.831
17,TGGATA,0.98
18,GACCGG,0.972
19,GTAGCG,0.886

# An excerpt of these results, tab-delimited.
row	Sequence	binding signal
3	GCGCAC	0.864
4	TCTGGA	1.01

# Source: paper PMC7862700
